Results from the supplement of paper PMC10849652.
The other results are listed elsewhere or left out.

Chains of the proteins cited; added tags and fusions are not shown. Lines headed by an entry give the natural chain unless they say otherwise; changes in a name come on top.
UniProt Q9BZF1: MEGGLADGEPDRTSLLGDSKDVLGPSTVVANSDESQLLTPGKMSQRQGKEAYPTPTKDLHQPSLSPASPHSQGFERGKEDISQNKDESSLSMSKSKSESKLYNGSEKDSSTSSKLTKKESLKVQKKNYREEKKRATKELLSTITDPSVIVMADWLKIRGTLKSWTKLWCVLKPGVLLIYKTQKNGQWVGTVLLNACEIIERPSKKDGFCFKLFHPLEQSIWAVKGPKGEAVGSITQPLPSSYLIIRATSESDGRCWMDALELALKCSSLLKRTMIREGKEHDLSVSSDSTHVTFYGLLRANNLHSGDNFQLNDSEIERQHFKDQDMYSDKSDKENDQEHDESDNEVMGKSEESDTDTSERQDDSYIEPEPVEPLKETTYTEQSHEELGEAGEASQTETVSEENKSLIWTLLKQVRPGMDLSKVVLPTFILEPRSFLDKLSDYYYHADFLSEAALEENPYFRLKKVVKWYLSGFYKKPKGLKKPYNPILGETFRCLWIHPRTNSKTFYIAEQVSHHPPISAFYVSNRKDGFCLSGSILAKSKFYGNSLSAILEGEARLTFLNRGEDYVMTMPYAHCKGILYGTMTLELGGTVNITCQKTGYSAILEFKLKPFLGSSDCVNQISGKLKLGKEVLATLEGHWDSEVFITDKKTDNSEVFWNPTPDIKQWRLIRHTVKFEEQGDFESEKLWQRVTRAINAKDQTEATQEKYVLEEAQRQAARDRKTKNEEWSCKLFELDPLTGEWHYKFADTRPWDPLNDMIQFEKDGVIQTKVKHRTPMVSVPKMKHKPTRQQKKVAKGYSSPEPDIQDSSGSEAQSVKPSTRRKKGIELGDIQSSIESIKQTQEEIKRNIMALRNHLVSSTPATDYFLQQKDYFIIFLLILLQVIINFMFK
UniProt Q5SRE5: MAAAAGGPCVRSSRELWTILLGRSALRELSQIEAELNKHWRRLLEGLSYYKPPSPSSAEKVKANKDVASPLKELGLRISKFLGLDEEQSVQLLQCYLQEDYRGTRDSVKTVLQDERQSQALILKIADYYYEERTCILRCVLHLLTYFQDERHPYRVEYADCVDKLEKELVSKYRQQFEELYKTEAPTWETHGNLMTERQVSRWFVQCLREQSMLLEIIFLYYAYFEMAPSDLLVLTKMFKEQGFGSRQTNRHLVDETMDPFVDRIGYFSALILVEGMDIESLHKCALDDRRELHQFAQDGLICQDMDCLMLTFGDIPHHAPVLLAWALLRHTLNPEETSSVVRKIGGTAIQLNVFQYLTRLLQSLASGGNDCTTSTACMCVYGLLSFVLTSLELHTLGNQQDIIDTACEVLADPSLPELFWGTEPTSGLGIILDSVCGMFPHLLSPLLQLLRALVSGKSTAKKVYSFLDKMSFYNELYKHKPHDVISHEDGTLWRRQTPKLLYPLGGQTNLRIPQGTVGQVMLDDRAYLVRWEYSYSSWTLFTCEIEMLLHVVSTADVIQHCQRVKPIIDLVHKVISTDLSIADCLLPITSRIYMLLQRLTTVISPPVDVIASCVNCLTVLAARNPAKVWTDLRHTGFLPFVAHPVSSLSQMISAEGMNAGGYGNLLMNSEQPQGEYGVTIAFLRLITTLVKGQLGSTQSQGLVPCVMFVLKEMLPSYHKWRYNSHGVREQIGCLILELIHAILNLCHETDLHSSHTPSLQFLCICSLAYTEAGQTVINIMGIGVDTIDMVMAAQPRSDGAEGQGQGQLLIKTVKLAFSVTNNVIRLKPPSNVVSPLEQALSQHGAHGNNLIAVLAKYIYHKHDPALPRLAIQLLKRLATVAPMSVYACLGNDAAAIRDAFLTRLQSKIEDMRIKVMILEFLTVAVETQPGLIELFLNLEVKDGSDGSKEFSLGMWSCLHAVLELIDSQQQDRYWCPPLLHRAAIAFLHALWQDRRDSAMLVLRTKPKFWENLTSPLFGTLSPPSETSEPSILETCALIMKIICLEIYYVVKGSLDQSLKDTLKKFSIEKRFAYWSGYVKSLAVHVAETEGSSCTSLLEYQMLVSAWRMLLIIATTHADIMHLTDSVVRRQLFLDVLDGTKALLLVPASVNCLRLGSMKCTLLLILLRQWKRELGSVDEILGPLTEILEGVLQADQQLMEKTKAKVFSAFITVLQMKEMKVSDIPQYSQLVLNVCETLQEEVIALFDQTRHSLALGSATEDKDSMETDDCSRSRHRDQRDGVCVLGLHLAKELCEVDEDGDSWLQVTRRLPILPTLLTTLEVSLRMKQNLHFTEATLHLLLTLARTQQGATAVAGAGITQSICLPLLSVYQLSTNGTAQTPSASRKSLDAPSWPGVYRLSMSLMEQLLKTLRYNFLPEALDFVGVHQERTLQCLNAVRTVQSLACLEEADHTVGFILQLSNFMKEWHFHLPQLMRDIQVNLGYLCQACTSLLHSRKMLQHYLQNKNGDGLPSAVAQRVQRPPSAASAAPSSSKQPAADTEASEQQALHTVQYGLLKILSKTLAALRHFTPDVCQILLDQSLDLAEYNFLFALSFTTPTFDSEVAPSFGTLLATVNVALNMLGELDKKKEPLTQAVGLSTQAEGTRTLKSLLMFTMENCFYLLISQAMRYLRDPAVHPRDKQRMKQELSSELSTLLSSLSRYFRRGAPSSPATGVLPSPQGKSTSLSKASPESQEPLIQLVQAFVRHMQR
UniProt Q8N6M0: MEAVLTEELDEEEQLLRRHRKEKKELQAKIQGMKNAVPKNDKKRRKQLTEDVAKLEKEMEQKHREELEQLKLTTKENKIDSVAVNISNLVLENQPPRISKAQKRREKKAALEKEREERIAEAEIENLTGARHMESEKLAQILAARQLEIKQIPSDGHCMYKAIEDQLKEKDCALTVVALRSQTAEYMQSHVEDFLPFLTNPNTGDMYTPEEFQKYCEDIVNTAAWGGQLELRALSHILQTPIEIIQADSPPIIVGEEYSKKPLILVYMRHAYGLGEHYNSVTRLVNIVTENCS
UniProt P51003: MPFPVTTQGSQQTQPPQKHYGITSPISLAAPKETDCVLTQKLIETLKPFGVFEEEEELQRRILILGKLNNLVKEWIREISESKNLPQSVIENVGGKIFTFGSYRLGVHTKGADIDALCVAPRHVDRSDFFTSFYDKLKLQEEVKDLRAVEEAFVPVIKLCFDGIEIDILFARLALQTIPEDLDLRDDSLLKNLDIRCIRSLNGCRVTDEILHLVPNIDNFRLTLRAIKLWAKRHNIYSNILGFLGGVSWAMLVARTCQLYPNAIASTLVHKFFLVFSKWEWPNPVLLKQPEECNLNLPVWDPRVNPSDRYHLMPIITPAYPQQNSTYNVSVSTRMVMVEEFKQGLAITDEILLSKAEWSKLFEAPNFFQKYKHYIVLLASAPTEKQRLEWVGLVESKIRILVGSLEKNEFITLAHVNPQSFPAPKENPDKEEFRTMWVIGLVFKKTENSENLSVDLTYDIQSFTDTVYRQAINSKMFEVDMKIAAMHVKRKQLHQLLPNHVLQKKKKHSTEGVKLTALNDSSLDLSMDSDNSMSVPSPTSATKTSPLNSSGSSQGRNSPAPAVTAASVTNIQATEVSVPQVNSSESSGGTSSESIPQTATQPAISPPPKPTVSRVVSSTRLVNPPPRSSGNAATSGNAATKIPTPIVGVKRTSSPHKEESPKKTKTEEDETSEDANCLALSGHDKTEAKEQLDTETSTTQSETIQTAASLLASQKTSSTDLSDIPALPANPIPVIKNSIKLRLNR
UniProt Q9UKX7: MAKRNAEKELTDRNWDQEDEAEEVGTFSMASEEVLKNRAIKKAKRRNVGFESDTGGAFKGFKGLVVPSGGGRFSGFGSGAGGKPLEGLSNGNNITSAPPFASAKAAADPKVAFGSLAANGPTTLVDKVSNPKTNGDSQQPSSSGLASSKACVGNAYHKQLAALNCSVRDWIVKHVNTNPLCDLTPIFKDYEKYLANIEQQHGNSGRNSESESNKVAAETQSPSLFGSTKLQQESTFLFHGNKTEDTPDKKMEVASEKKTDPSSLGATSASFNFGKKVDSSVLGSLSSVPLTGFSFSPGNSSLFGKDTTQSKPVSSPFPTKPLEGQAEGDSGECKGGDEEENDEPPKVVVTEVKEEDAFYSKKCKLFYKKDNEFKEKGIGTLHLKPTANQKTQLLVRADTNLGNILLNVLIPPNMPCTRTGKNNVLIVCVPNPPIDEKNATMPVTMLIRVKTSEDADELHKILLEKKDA
UniProt Q9NWT1: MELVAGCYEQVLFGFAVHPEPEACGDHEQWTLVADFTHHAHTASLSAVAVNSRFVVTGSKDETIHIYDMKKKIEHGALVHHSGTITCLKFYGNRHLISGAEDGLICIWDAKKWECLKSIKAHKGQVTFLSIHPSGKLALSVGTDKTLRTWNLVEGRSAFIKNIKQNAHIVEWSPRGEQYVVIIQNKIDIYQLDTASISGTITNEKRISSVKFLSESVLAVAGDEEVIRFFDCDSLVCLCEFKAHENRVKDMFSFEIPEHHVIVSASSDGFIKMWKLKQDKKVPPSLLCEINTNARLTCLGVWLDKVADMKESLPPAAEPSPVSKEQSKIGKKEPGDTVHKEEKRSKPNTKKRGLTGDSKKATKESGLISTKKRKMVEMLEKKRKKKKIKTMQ
UniProt Q9UNF0: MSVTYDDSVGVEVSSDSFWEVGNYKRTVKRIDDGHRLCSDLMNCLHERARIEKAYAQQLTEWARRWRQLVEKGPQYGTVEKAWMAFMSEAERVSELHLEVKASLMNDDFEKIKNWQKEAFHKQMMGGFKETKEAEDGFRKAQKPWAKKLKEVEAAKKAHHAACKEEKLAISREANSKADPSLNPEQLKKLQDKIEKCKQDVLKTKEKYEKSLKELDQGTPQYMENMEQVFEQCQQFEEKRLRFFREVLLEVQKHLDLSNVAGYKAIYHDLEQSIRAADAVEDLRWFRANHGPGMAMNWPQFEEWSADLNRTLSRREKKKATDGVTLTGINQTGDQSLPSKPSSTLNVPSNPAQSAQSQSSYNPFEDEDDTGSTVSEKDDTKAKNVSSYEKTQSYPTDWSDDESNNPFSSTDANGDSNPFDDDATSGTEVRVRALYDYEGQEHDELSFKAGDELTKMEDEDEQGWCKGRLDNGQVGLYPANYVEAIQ
UniProt Q9NRP0: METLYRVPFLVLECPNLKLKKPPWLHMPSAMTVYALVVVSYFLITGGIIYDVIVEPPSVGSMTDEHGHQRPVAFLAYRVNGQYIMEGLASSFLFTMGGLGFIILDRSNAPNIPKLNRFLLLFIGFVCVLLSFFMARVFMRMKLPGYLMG
UniProt Q6PK18: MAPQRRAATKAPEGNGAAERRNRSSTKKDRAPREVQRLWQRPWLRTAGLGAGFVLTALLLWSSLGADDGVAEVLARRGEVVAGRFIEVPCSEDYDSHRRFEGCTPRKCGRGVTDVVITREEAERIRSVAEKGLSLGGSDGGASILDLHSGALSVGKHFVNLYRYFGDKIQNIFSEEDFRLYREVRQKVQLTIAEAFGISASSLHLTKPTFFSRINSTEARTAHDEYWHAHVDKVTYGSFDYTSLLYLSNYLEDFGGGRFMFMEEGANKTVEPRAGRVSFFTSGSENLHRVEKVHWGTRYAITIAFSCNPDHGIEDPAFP
UniProt Q9H1P3, whole entry, looked up: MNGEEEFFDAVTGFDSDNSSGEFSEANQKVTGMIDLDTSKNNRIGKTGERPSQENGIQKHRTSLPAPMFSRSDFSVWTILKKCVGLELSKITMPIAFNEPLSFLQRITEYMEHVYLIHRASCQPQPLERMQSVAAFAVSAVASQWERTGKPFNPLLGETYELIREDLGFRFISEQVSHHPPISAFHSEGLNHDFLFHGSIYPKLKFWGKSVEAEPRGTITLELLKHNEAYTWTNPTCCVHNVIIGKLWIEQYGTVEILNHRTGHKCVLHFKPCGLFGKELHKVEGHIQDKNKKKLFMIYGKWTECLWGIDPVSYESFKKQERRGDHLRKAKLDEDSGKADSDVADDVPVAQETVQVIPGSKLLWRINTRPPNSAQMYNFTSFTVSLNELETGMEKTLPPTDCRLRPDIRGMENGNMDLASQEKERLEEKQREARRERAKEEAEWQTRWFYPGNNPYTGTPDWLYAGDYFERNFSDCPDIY
UniProt O43252: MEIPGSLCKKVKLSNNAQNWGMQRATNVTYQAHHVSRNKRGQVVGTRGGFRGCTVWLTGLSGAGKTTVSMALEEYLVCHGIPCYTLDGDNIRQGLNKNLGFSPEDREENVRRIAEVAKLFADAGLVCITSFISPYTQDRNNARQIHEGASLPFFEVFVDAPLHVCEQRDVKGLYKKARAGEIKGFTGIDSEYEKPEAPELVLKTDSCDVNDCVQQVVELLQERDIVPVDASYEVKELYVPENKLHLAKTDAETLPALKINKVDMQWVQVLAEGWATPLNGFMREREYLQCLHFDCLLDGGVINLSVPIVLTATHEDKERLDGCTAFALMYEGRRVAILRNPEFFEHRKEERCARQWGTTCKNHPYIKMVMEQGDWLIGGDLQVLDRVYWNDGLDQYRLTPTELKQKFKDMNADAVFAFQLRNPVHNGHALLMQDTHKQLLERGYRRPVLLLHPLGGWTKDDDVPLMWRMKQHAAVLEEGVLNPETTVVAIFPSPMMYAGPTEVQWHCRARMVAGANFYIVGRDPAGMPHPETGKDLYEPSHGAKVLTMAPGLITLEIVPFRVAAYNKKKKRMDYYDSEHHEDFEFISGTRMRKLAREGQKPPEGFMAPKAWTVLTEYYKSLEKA

These targets were tested with CC1=C(C2=C(C=C1)C(=O)C3=CC=CC=C3N2CCCN)C (assay: log2 fold change, soluble protein after heating vs DMSO (PISA); higher = thermal stabilisation; K562 lysate, 10 uM; active = over 0.2 and 3.5 SD of the protein, either way, in both replicates (recomputed)).
Method in brief: (§1)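 Values give the log-two fold change in thermal stability against solvent controls, from duplicates. Crude K562 extract at 1 mg/mL protein, made by dounce homogenisation in PBS pH 7.4 with 1 mM MgCl2, was treated with 10 μM compound for 30 min. After 3 min heating across 48°C-58°C, aliquots were pooled, adjusted to 0.5% NP-40 at 4°C and centrifuged at 21,000xg for 90 min. The supernatant was measured by TMTpro 16plex LC-MS/MS with channel sums equalised.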

Target	log2 fold change
OXSR1 (UniProt O95747)	inactive: 0.003
ORC5 (UniProt O43913)	inactive: -0.008
OSBPL8 (UniProt Q9BZF1)	inactive: -0.039
NUP188 (UniProt Q5SRE5)	inactive: 0.035
PAGR1 (UniProt Q9BTK6)	inactive: 0.061
OMA1 (UniProt Q96E52)	inactive: 0.004
OTC (UniProt P00480)	inactive: 0.065
PANK1 (UniProt Q8TE04)	inactive: -0.068
PAFAH1B3 (UniProt Q15102)	inactive: 0.014
PALM3 (UniProt A6NDB9)	inactive: 0.005
OVCA2 (UniProt Q8WZ82)	inactive: 0.026
PACS1 (UniProt Q6VY07)	inactive: 0.011
NUP205 (UniProt Q92621)	inactive: 0.022
OPA1 isoform 2 (UniProt O60313)	inactive: 0.026
OTUD6B (UniProt Q8N6M0)	inactive: 0.006
PAPOLA (UniProt P51003)	inactive: 0.006
OTUD5 isoform 5 (UniProt Q96G74)	inactive: 0.012

Target	log2 fold change
NUP50 (UniProt Q9UKX7)	inactive: -0.011
OGFOD2 (UniProt Q6N063)	inactive: 0.025
PAK1IP1 (UniProt Q9NWT1)	inactive: -0.009
PACSIN2 (UniProt Q9UNF0)	inactive: 0.011
OSTC (UniProt Q9NRP0)	inactive: -0.049
ORC4 (UniProt O43929)	inactive: -0.01
PAF1 (UniProt Q8N7H5)	inactive: -0.007
OGFOD3 (UniProt Q6PK18)	inactive: -0.021
OSTC isoform 2 (UniProt Q9NRP0)	inactive: -0.107
OSBPL2 (UniProt Q9H1P3)	inactive: 0.03
NUP210 (UniProt Q8TEM1)	inactive: -0.017
NUP85 (UniProt Q9BW27)	inactive: -0.004
NXF1 (UniProt Q9UBU9)	inactive: -0.028
ORC3 isoform 2 (UniProt Q9UBD5)	inactive: -0.036
PAPSS1 (UniProt O43252)	inactive: -0.002
PALMD (UniProt Q9NP74)	inactive: 0.044

Each target was assayed with CC1=C(C=C(C=C1)NC(=O)C2=CC(=CC=C2)C(C)(C)C#N)NC3=CC4=C(C=C3)N=CN(C4=O)C in the same assay as above.
Method in brief: as §1

Target	log2 fold change
OXSR1 (UniProt O95747)	inactive: -0.005
ORC5 (UniProt O43913)	inactive: 0.012
OSBPL8 (UniProt Q9BZF1)	inactive: -0.007
NUP188 (UniProt Q5SRE5)	inactive: -0.04
PAGR1 (UniProt Q9BTK6)	inactive: 0.008
OMA1 (UniProt Q96E52)	inactive: 0.033
OTC (UniProt P00480)	inactive: 0.156
PANK1 (UniProt Q8TE04)	inactive: -0.035
PAFAH1B3 (UniProt Q15102)	inactive: -0.002
PALM3 (UniProt A6NDB9)	inactive: 0.019
OVCA2 (UniProt Q8WZ82)	inactive: -0.077
PACS1 (UniProt Q6VY07)	inactive: -0.017
NUP205 (UniProt Q92621)	inactive: 0.026
OPA1 isoform 2 (UniProt O60313)	inactive: 0.024
OTUD6B (UniProt Q8N6M0)	inactive: 0.148
PAPOLA (UniProt P51003)	inactive: -0.036
OTUD5 isoform 5 (UniProt Q96G74)	inactive: 0.037

Target	log2 fold change
NUP50 (UniProt Q9UKX7)	inactive: 0.003
OGFOD2 (UniProt Q6N063)	inactive: -0.04
PAK1IP1 (UniProt Q9NWT1)	inactive: -0.023
PACSIN2 (UniProt Q9UNF0)	inactive: -0.012
OSTC (UniProt Q9NRP0)	inactive: 0.003
ORC4 (UniProt O43929)	inactive: -0.029
PAF1 (UniProt Q8N7H5)	inactive: 0.012
OGFOD3 (UniProt Q6PK18)	inactive: -0.068
OSTC isoform 2 (UniProt Q9NRP0)	inactive: 0.083
OSBPL2 (UniProt Q9H1P3)	inactive: -0.079
NUP210 (UniProt Q8TEM1)	inactive: -0.005
NUP85 (UniProt Q9BW27)	inactive: -0.022
NXF1 (UniProt Q9UBU9)	inactive: -0.022
ORC3 isoform 2 (UniProt Q9UBD5)	inactive: 0.003
PAPSS1 (UniProt O43252)	inactive: 0.005
PALMD (UniProt Q9NP74)	inactive: -0.023

These targets were tested with CC1=C(C=C(C=C1)NC(=O)C2=CC(=CC=C2)N(C)C)NC(=O)C3=CC=C(C=C3)O in the same assay as above.
Method in brief: as §1

Target	log2 fold change
OXSR1 (UniProt O95747)	inactive: -0.001
ORC5 (UniProt O43913)	inactive: 0.053
OSBPL8 (UniProt Q9BZF1)	inactive: 0.037
NUP188 (UniProt Q5SRE5)	inactive: 0.042
PAGR1 (UniProt Q9BTK6)	inactive: -0.053
OMA1 (UniProt Q96E52)	inactive: 0.023
OTC (UniProt P00480)	inactive: -0.034
PANK1 (UniProt Q8TE04)	inactive: -0.025
PAFAH1B3 (UniProt Q15102)	inactive: 0.02
PALM3 (UniProt A6NDB9)	inactive: 0.002
OVCA2 (UniProt Q8WZ82)	inactive: 0.007
PACS1 (UniProt Q6VY07)	inactive: -0.02
NUP205 (UniProt Q92621)	inactive: 0.017
OPA1 isoform 2 (UniProt O60313)	inactive: 0.046
OTUD6B (UniProt Q8N6M0)	inactive: -0.005
PAPOLA (UniProt P51003)	inactive: 0.006
OTUD5 isoform 5 (UniProt Q96G74)	inactive: 0.039

Target	log2 fold change
NUP50 (UniProt Q9UKX7)	inactive: 0.019
OGFOD2 (UniProt Q6N063)	inactive: -0.029
PAK1IP1 (UniProt Q9NWT1)	inactive: -0.008
PACSIN2 (UniProt Q9UNF0)	inactive: 0.004
OSTC (UniProt Q9NRP0)	inactive: -0.004
ORC4 (UniProt O43929)	inactive: 0.02
PAF1 (UniProt Q8N7H5)	inactive: -0.001
OGFOD3 (UniProt Q6PK18)	inactive: -0.004
OSTC isoform 2 (UniProt Q9NRP0)	inactive: -0.034
OSBPL2 (UniProt Q9H1P3)	inactive: 0.021
NUP210 (UniProt Q8TEM1)	inactive: -0.027
NUP85 (UniProt Q9BW27)	inactive: -0.005
NXF1 (UniProt Q9UBU9)	inactive: 0.009
ORC3 isoform 2 (UniProt Q9UBD5)	inactive: 0.029
PAPSS1 (UniProt O43252)	inactive: -0.015
PALMD (UniProt Q9NP74)	inactive: 0.036
